Record: PubChem BioAssay AID1159578 (Peter MacCallum Cancer Centre, 2015)
This is a random part of about 18,000 deposited reagents. About 1,030 of all reagents (5.7%) count as active. 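Inactive calls also include pools with fewer than 3300 nuclei, whose migration was not assessed.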 The raw values are shown without normalisation. Entries without a mark were called inactive. The numbers tell different reagents against one gene apart. Not all columns of the deposit are shown. Reagent sequences are not shown.

- Aim: 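Knock-downs that alter how fast lymphatic endothelial cells migrate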 (primary screen)
- Cell system: human lymphatic endothelial cells
- Knock-down reagent: siRNA pool against human genes, 40 nM
- Duration: 48 h after transfection
- Detection: 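High-content imaging of dye-stained cells in a scratch assay measures filled wound area and nuclei per well; duplicate means given as ratio to mock and robust z-score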
- Direction: migration robust z-score: higher = faster migration into the scratch; nuclei per well: higher = more cells in the well
- Active means: 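Migration changed when robust z exceeds 2 or falls below -2 and mean nuclei number is at least 3300; otherwise not called changed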
- Meaning of the calls: active = migration changed; inactive = no migration change, or too few cells

LINC03122 (long independently transcribed non-coding RNA 3122)
- migration robust z-score: -0.08
- migration class with cell-count check: migration z between -2 and 2; enough cells
- nuclei per well, duplicate mean: 5681

ST3GAL1 (ST3 beta-galactoside alpha-2,3-sialyltransferase 1)
- migration robust z-score: -0.02
- migration class with cell-count check: migration z between -2 and 2; enough cells
- nuclei per well, duplicate mean: 6170

TMEM256 (transmembrane protein 256)
- migration robust z-score: -0.74
- migration class with cell-count check: migration z between -2 and 2; enough cells
- nuclei per well, duplicate mean: 5877

LRP5 (LDL receptor related protein 5)
- migration robust z-score: -0.68
- migration class with cell-count check: migration z between -2 and 2; enough cells
- nuclei per well, duplicate mean: 5254

ZNF226 (zinc finger protein 226)
- migration robust z-score: -0.2
- migration class with cell-count check: migration z between -2 and 2; enough cells
- nuclei per well, duplicate mean: 5980

ADAMTS3 (ADAM metallopeptidase with thrombospondin type 1 motif 3)
- migration robust z-score: -0.5
- migration class with cell-count check: migration z between -2 and 2; enough cells
- nuclei per well, duplicate mean: 5116

SLX4IP (SLX4 interacting protein)
- migration robust z-score: -0.04
- migration class with cell-count check: migration z between -2 and 2; enough cells
- nuclei per well, duplicate mean: 5832

Next part; the last 3 above are carried over.
ZNF226 (zinc finger protein 226)
- migration robust z-score: -0.2
- migration class with cell-count check: migration z between -2 and 2; enough cells
- nuclei per well, duplicate mean: 5980

ADAMTS3 (ADAM metallopeptidase with thrombospondin type 1 motif 3)
- migration robust z-score: -0.5
- migration class with cell-count check: migration z between -2 and 2; enough cells
- nuclei per well, duplicate mean: 5116

SLX4IP (SLX4 interacting protein)
- migration robust z-score: -0.04
- migration class with cell-count check: migration z between -2 and 2; enough cells
- nuclei per well, duplicate mean: 5832

TVP23B (trans-golgi network vesicle protein 23 homolog B)
- migration robust z-score: 1.3
- migration class with cell-count check: migration z between -2 and 2; enough cells
- nuclei per well, duplicate mean: 6885

GDPD3 (glycerophosphodiester phosphodiesterase domain containing 3)
- migration robust z-score: 0.83
- migration class with cell-count check: migration z between -2 and 2; enough cells
- nuclei per well, duplicate mean: 5570

H1-4 (H1.4 linker histone, cluster member)
- migration robust z-score: 1.48
- migration class with cell-count check: migration z between -2 and 2; enough cells
- nuclei per well, duplicate mean: 6648

AHSA2P (activator of HSP90 ATPase homolog 2, pseudogene)
- migration robust z-score: 1.46
- migration class with cell-count check: migration z between -2 and 2; enough cells
- nuclei per well, duplicate mean: 6490

C1orf122 (chromosome 1 open reading frame 122)
- migration robust z-score: 1.94
- migration class with cell-count check: migration z between -2 and 2; enough cells
- nuclei per well, duplicate mean: 5666

GPRC5C (G protein-coupled receptor class C group 5 member C)
- migration robust z-score: -1.55
- migration class with cell-count check: migration z between -2 and 2; enough cells
- nuclei per well, duplicate mean: 6365

SALL4 (spalt like transcription factor 4)
- migration robust z-score: 0
- migration class with cell-count check: migration z between -2 and 2; enough cells
- nuclei per well, duplicate mean: 6359

EXOC1 (exocyst complex component 1)
- migration robust z-score: -1.31
- migration class with cell-count check: migration z between -2 and 2; enough cells
- nuclei per well, duplicate mean: 5304

DUSP12 (dual specificity phosphatase 12)
- migration robust z-score: -2.31 (active)
- migration class with cell-count check: migration z below -2; enough cells
- nuclei per well, duplicate mean: 5244

PTPN20 (protein tyrosine phosphatase non-receptor type 20) #1
- migration robust z-score: 0.68
- migration class with cell-count check: migration z between -2 and 2; enough cells
- nuclei per well, duplicate mean: 4429

PTPN20 (protein tyrosine phosphatase non-receptor type 20) #2
- migration robust z-score: 0.34
- migration class with cell-count check: migration z between -2 and 2; enough cells
- nuclei per well, duplicate mean: 4152

ABLIM3 (actin binding LIM protein family member 3)
- migration robust z-score: -1.39
- migration class with cell-count check: migration z between -2 and 2; enough cells
- nuclei per well, duplicate mean: 5290

A1BG (alpha-1-B glycoprotein)
- migration robust z-score: 0.36
- migration class with cell-count check: migration z between -2 and 2; enough cells
- nuclei per well, duplicate mean: 5170

LILRA5 (leukocyte immunoglobulin like receptor A5)
- migration robust z-score: -0.03
- migration class with cell-count check: migration z between -2 and 2; enough cells
- nuclei per well, duplicate mean: 5764
